Test results: PubChem BioAssay AID2685 (National Center for Advancing Translational Sciences (NCATS), 2010)
Among all 320,000 compounds or so, about 2,100 (0.66%) were called active. Inconclusive means that the source gave no clear call. Such entries were picked first, then a sample of the others. The call rests on the fitted dose curve; in most records, active means well fitted inhibition curve with a large enough effect in the signal ratio, with a control signal flat (not every such curve was filed as active); inconclusive means small, poorly fitted or top-dose-only effect, or effect the other way, or a change in a side signal; inactive means flat fitted curve, though single readings scatter; the % refers to the signal ratio. Potencies of inconclusive entries are doubtful fits and often do not repeat.

Assay: qHTS Assay for Lipid Storage Modulators in Drosophila S3 Cells
Conditions: BODIPY lipid droplet fluorescence, 18-24 h, cells fed with added oleic acid; lipid storage change, negative = inhibition: at 46.1 µM (top of the series) unless noted
In short: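 Laser-scanning cytometry quantifies lipid droplet accumulation (500–530 nm total intensity; droplet/cell object ratio) in oleic acid-fed (400 uM added) Drosophila S3 cells treated with a concentration series. 20 uM Triacsin C defined 100% inhibition.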
On the % scale 0 is the no-effect control and ±100 the full control effect; potency means the concentration at half of the fitted maximal effect.

| SMILES | lipid storage change, negative = inhibition | Potency |
| --- | --- | --- |
| Cc1nc(NC(=O)/C=C/c2ccccc2)sc1C(=O)Nc1ccc(Cl)cc1 | inconclusive: 6.01% | – |
| CCOc1cc(C(=O)Nc2ccc(S(=O)(=O)N3CCOCC3)cc2)cc(OCC)c1OCC | inconclusive: -30.4% | – |
| CCn1nnc2cc(C(=O)O)ccc21 | inconclusive: 1.74% | – |
| O=c1[nH]cnc2cc(-c3ccc(Br)cc3)sc12 | – | inconclusive: 29.1 µM [activator, single point] |
| Cc1ccc(CC(SCc2ccccc2)C(=O)O)cc1C (configuration not stated) | inconclusive: -106% | – |
| COc1ccccc1NC(=O)c1cccc(S(=O)(=O)N2CCOCC2)c1 | inconclusive: 2.58% | – |
| O=S(=O)(Nc1ccc2c(c1)OCO2)c1ccc(F)c(F)c1 | – | inconclusive: 29.1 µM [cytotoxic, single point] |
| Nc1nonc1C(=O)N1CCCC1 | inconclusive: -30.5% | – |
| C=CCNC(=O)c1onc(CSc2ccc(F)cc2)c1C(=O)NCC=C | inconclusive: 4.98% | – |
| CCOC(=O)C(Cc1ccccc1)NC(=O)CCCC(=O)c1ccccc1 (configuration not stated) | inconclusive: -33.4% | – |
| CC1(C)Cc2c(sc3c2c(=O)n(Cc2ccccc2)c2nncn32)CO1 | inconclusive: 89.1% | – |
| Cc1cccn2c(=O)c3cc(C(N)=S)c(=N)n(CCCN4CCOCC4)c3nc12 | inactive | – |
| CCc1ccccc1NC(=S)NNC(=O)c1ccccc1Cl | inconclusive: -36.9% [at 0.00295 µM] | – |
| Cc1cc2nc(C(F)(F)F)[nH]c(=O)n2n1 | inconclusive: -12.8% | – |
| O=C(O)C1CCN(c2ccc(S(=O)(=O)N3CCCCC3)cc2[N+](=O)[O-])CC1 | inconclusive: 19.3% | – |
| COc1cccc(NC(=S)NC2CC(C)(C)NC(C)(C)C2)c1 | inconclusive: 6.42% | – |
| CC(C)CCN1C(=O)c2ccc(C(=O)OCC(=O)N(C)C3CCS(=O)(=O)C3)cc2C1=O (configuration not stated) | inconclusive | – |
| Cc1ccc(C(=O)NCCc2ccccc2)cc1N1CCCC1=O | inconclusive: 1.95% | – |
| O=C(Nc1ccc(Cl)c(Cl)c1)N1CC=C(c2ccccc2)CC1 | – | inconclusive: 20.6 µM [falling, partial curve] |
| Cc1ccccc1CN1CCC(N2CCC(C(=O)NCC3CCCO3)CC2)CC1 (configuration not stated) | – | inconclusive: 29.1 µM [activator, single point] |
| O=C(C1CCC(=O)N1Cc1ccccc1Cl)N1CCN(c2ccc(F)cc2)CC1 (configuration not stated) | inconclusive: 2.03% | – |
| Cc1ccc(NS(=O)(=O)c2c(C)[nH]c(C)c2C(=O)N2CCCCC2)c(Cl)c1 | inconclusive: -100% | – |
| Cc1cc(C(=O)N2CCCC(C(=O)c3ccc(Cl)cc3C)C2)no1 (configuration not stated) | inconclusive: 78.7% | – |
| CCN(CC)c1ccc(/C=N/N2CCN(Cc3ccccc3)CC2)c(O)c1 | – | inconclusive: 29.1 µM [falling, single point] |
| COc1ccc(-c2cc(CNC(=O)CN3CCN(C)CC3)on2)cc1 | – | active: 4.11 µM |
| COc1ccc(OC(C)C(=O)Nc2ccc(F)cc2F)cc1 (configuration not stated) | inconclusive: 24% | – |

| SMILES | lipid storage change, negative = inhibition | Potency |
| --- | --- | --- |
| COc1ccc(NC(=O)c2cc3c(CO)cnc(C)c3oc2=Nc2cccc(F)c2)c(OC)c1 | – | inconclusive: 13 µM [falling, partial curve] |
| Cc1onc(-c2ccccc2)c1C(=O)Nc1ccccc1N1CCOCC1 | – | inconclusive: 1.84 µM [activator, partial curve] |
| c1ccc(N2OCC3Cn4c(nc5ccccc54)C32)cc1 (configuration not stated) | inconclusive: 18.8% | – |
| CN(C(=O)CSC1=NC2C(N=N1)c1cc(Br)ccc1N2C)C1CCCCC1 (configuration not stated) | inconclusive: 1.45% | – |
| CCOc1ccc(C)cc1S(=O)(=O)Nc1ccc(Cl)cn1 | – | inconclusive: 0.731 µM [rising, full curve] |
| Cc1cccc(OCCN2CCOCC2)c1C | inconclusive: 155% | – |
| O=C(O)CSc1nnc(-c2ccc3c(c2)OCO3)n1-c1ccccc1 | inconclusive: -21.4% | – |
| CCN(CC)S(=O)(=O)c1ccc(C(=O)NCC(=O)NC2CC2)cc1 | inconclusive: 4.54% | – |
| COc1ccccc1OCC(=O)N(Cc1nnc(-c2ccccc2Cl)o1)C1CC1 | inconclusive: 21.1% | – |
| CCc1cccc2c(C(=O)COC(=O)c3ccc([N+](=O)[O-])s3)c[nH]c12 | – | inconclusive: 10.3 µM [falling, partial curve, poor fit] |
| O=C(C1=C(O)C(=O)N(CCN2CCOCC2)C1c1cccc(O)c1)c1cc2ccccc2o1 (configuration not stated) | inconclusive: 37.4% | – |
| Cc1cc(C=O)c(C)n1-c1cc(C(=O)O)cc(C(=O)O)c1 | inconclusive: -7.61% | – |
| Cc1ccc(S(=O)(=O)Nc2ccc3c(c2)n(C)c(=O)n3C)c(C)c1 | inconclusive: -56.2% | – |
| CCOc1cc(C(=S)N2CCOCC2)ccc1OC | – | inconclusive: 2.31 µM [falling, full curve, poor fit] |
| S=C1NC[C@H](CC2CCCCC2)N1CCc1cccc2ccccc12 | – | inconclusive: 10.3 µM [activator, partial curve] |
| CCOc1cc(/C=N/NC(=O)c2ccncc2)cc(Cl)c1OS(C)(=O)=O | inconclusive: 34% | – |
| O=C(c1cccs1)N1CCC(c2nc3c(nnn3Cc3c(Cl)cccc3Cl)c(=O)[nH]2)CC1 | – | inconclusive: 5.17 µM [falling, single point] |
| COc1ccc(CNC(=O)C2CCN(S(=O)(=O)c3ccc4c(c3)C(C)(C)C(=O)N4C)CC2)cc1 | inconclusive: 6.78% | – |
| O=C(Cn1c(NCCO)nc2ccccc21)Nc1ccc2c(c1)OCCCO2 | inconclusive | – |
| Cc1cc(C)nc(N/N=C/c2ccccc2OCc2ccc(Cl)cc2)n1 | inconclusive: 13.9% | – |
| Cc1ccccc1CC(=O)NCCN1CCOCC1 | – | inconclusive: 16.4 µM [activator, partial curve] |
| CCN1C(=O)[C@H]2[C@@H](c3ccc(-c4ccc(OC)cc4)cc3)N[C@@](CC(C)C)(C(=O)OC)[C@H]2C1=O | inactive | – |
| CC(NC(=O)CCNS(=O)(=O)c1cccc2nonc12)c1ccccc1 (configuration not stated) | – | inconclusive: 2.06 µM [activator, partial curve] |
| CC1CCCC(C)N1C(=O)COC(=O)Cn1cnc2c1c(=O)n(C)c(=O)n2C (configuration not stated) | inconclusive: -41% [at 0.0737 µM] | – |
| Cc1ccc(S(=O)(=O)N2CCN(S(=O)(=O)c3c(C)n[nH]c3C)CC2)cc1C | inconclusive: 55.6% | – |
| O=C(CS(=O)(=O)c1ccccc1)Nc1nc2ccccc2s1 | inconclusive: 22.3% | – |

| SMILES | lipid storage change, negative = inhibition | Potency |
| --- | --- | --- |
| Cc1cccc(NC(=O)CSc2nnc([C@@H]3CCCN3C(=O)OC(C)(C)C)o2)c1C | inconclusive: 28.1% | – |
| O=C(COc1ccc(S(=O)(=O)N2CCCC2)cc1)N1CCN(c2ccccc2F)CC1 | – | inconclusive: 29.1 µM [falling, single point] |
| Cc1cccc(-c2nnc3sc(-c4ccccc4)nn23)c1 | inconclusive: 7.81% | – |
| COc1cc(NC(=O)c2ccco2)ccc1NC(=O)c1ccccc1Cl | inconclusive: -30.7% | – |
| N#Cc1c(-c2ccccc2)oc(=O)c2ccccc12 | inconclusive: 11.2% | – |
| COc1ccc(NC(=O)CN2C(=O)NC(C)(c3ccccc3)C2=O)cc1Cl (configuration not stated) | – | inconclusive: 0.116 µM [activator, full curve] |
| COc1cccc(/C=N/Nc2snc(SC)c2C#N)c1 | inconclusive: 49.8% | – |
| CCOc1cc(CNc2ccc(N3CCCCC3)cc2)cc(Br)c1OCC(=O)NC(C)(C)C | inconclusive: -55.9% | – |
| Cc1onc(-c2ccccc2)c1C(=O)Nc1ncc([N+](=O)[O-])s1 | – | inconclusive: 0.0651 µM [activator, partial curve, poor fit] |
| COc1ccc(OC)c(C(c2nnnn2C2CCCC2)N2CCN(c3ccccc3)CC2)c1 (configuration not stated) | – | inconclusive: 6.51 µM [activator, single point] |
| Cc1oc(-c2ccc(Cl)cc2)nc1CS(=O)CC(=O)NCc1cccs1 (configuration not stated) | – | inconclusive: 2.91 µM [activator, single point] |
| CCCCN(Cc1ccccc1)S(=O)(=O)c1ccc2[nH]c(=O)oc2c1 | inconclusive: -40.9% | – |
| Cc1noc(C)c1COc1cccc(C(=O)Nc2ccccc2N2CCOCC2)c1 | inconclusive: 19.2% | – |
| CN(C)C1=NC[C@H](Cc2ccccc2)N1CC1CCC(C(C)(C)C)CC1 (some centres not stated) | inconclusive: -24.5% | – |
| CC1CCCCC1NC(=O)Cn1[nH]c(=O)c2ccccc2c1=O (configuration not stated) | inconclusive: -7.63% | – |
| COc1ccc(S(=O)(=O)N(Cc2ccccc2)c2ccccc2C(=O)N2CCOCC2)cc1 | – | inconclusive: 25.9 µM [activator, single point] |
| Cc1ccc(NC(=O)[C@H](C)NC(=O)C2CCN(C(=O)[C@@H](NC(=O)OC(C)(C)C)C(C)C)CC2)cc1 | inconclusive: 6.68% | – |
| Cc1ccc(C(NC(=O)N2CCCC2)C(Cl)(Cl)Cl)cc1F (configuration not stated) | – | inconclusive: 29.1 µM [activator, single point] |
| NC(=O)c1cc2ccccc2oc1=NCc1ccccc1 | – | inconclusive: 20.6 µM [activator, partial curve] |
| Cc1ccc(SCC(=O)Nc2ccccc2C(=O)O)cc1 | inconclusive: 67.1% | – |
| COCc1c(C(=O)N2CCN(S(=O)(=O)c3ccccc3Cl)CC2)oc2ccccc12 | inconclusive: 25.7% | – |
| CC(C)c1ccc(NC(=S)N(C)CCc2ccccn2)cc1 | inconclusive: -35.8% [cytotoxic] [at 0.00295 µM] | – |
| COc1ccccc1NC(=O)CN1CCCCCC1 | inconclusive: 24.5% | – |
| COC(=O)c1cccnc1-n1c(=O)c2cccnc2n(CC(=O)Nc2ccc(Br)cc2)c1=O | inconclusive: 30% | – |
| O=C(Cc1c(F)cccc1Cl)NCC1CCCO1 (configuration not stated) | inconclusive: -3.54% | – |

Molecules above containing a furan ring, fused or not, in the order listed:

| SMILES | lipid storage change, negative = inhibition | Potency |
| --- | --- | --- |
| O=C(C1=C(O)C(=O)N(CCN2CCOCC2)C1c1cccc(O)c1)c1cc2ccccc2o1 (configuration not stated) | inconclusive: 37.4% | – |
| COc1cc(NC(=O)c2ccco2)ccc1NC(=O)c1ccccc1Cl | inconclusive: -30.7% | – |
| COCc1c(C(=O)N2CCN(S(=O)(=O)c3ccccc3Cl)CC2)oc2ccccc12 | inconclusive: 25.7% | – |
